# Among all 1,800 compounds or so, fewer than 10 were called active.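 The calls were made as follows: active = inhibition of granule release above a set limit; inactive = the rest.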 Some of the results follow.
# Assay: LAMP-1 surface externalization blockers in TALL-104 cells – cell-based, flow cytometry, validation set (AID 651664)
# Conditions: TALL-104 LAMP-1 externalization, at 15.2 µM, hits give high values, stimulated with thapsigargin and PMA
row,Structure (SMILES),inhibition
1,CCOc1ccccc1N1CCN(C2=C(NS(=O)(=O)c3cccs3)C(=O)c3ccccc3C2=O)CC1,inactive: 1.5%
2,COC(=O)c1cc(Cl)c(NC(=O)c2cc3ccccc3o2)cc1OC,inactive: 5.1%
3,CCn1c(O)c(N=NC2=NC(=O)CS2)c2cc(C)ccc21,inactive: -4.5%
4,CN(C(=O)c1ccc(C#N)cc1)c1nnc(-c2ccccn2)s1,inactive: 0.9%
5,Cn1c(=O)n(CC(=O)N2CCOCC2)c2ccccc21,inactive: 0.4%
6,COC(=O)c1cc(OC)c(OC)cc1NC(=O)c1ccc(Br)o1,inactive: -1.6%
7,Cc1cnc(NC(=O)c2ccc3c(c2)C(=O)N(Cc2ccco2)C3=O)s1,inactive: -1.3%
8,Cn1c(=O)n(C)c2cc(S(=O)(=O)O)ccc21,inactive: 4.8%
9,CCC1(C)Nc2ccccc2C(=O)N1O (configuration not stated),inactive: -0.7%
10,CCC1CCCCN1C(=O)c1c(-c2ccccc2)noc1C (configuration not stated),inactive: -2%
11,CC(C)(C)C(=O)Nc1cccc(-c2nnc(-c3cccc(NC(=O)C(C)(C)C)c3)o2)c1,inactive: -2.4%
12,Fc1ccc(C2=Nn3c(Cc4ccccc4F)nnc3SC2)cc1,inactive: 1.3%
13,CC(=O)/C(C[N+]1(C)CCCCC1)=N\O,inactive: -0.4%
14,O=C(Nc1nc(-c2ccc(-c3ccccc3)cc2)cs1)C1CCCO1 (configuration not stated),inactive: 13.3%
15,COc1ccc(C(C#N)N2CCOCC2)cc1 (configuration not stated),inactive: -1%
16,CC(C)C(=O)NCCc1nc2ccccc2n1CCCOc1ccc(Cl)cc1,inactive: -1.9%
17,COc1ccc(NC(=O)c2cc(OC)c(OC)cc2OC)c(S(=O)(=O)N2CCOCC2)c1,inactive: 2.5%
18,CC(C)OC(=O)/C(=C\C=C\c1ccccc1)NC(=O)c1ccccc1,inactive: -2.1%
19,COc1nc(OCC#N)nc(N(C)C)n1,inactive: -0.4%
20,CCCCCOP(=O)(OCCCCC)C1(NS(=O)(=O)c2ccccc2)C=CC(=O)c2ccccc21 (configuration not stated),inactive: 0.5%
21,O=C(OCCN1CCCC1)C1(c2ccccc2)CCCC1,inactive: -0.9%
22,O=S(=O)(Nc1cccnc1)c1ccc2c(c1)OCCO2,inactive: -1.3%
23,COc1cccc(CN(Cc2ccco2)C(c2ccc(F)cc2)c2nnnn2C(C)(C)C)c1 (configuration not stated),inactive: -0.3%
24,O=C(CSc1ncnc2c1cnn2Cc1ccccc1)Nc1ccc2c(c1)OCCO2,inactive: 0.3%
25,CCCOC(=O)c1ccc(NC(=O)c2ccoc2C)cc1,inactive: 0.7%

row,Structure (SMILES),inhibition
1,Cc1csc(N(C(=O)c2cccc(S(=O)(=O)N3CCCC3)c2)c2ccccc2)n1,inactive: -1.8%
2,COc1cc(C2C(C#N)=C(C)NC3=C2C(=O)CC(C)(C)C3)ccc1O (configuration not stated),inactive: 0.1%
3,O=C1c2ccccc2C(=O)N1c1ccccc1S(=O)C(F)(F)F (configuration not stated),inactive: 6.2%
4,COc1ccc(-c2cn[nH]c2N)cc1OC,inactive: 2.5%
5,O=C(CSc1nnc(-c2ccc(F)cc2)o1)Nc1ccccc1N1CCOCC1,inactive: 0.9%
6,COc1ccc(Cn2nnc3c(=O)[nH]c(C4CCN(C(=O)c5ccccc5Cl)CC4)nc32)cc1,inactive: -2.7%
7,COc1ccc(N=C2S/C(=C\c3ccc(C)s3)C(=O)N2CC(C)C)cc1,inactive: -0.3%
8,COc1cc(NS(=O)(=O)c2ccc(N/C=C(\C=O)c3nc4cc(Cl)ccc4o3)cc2)nc(OC)n1,inactive: 0%
9,COc1cccc(CN2CCN(C(=O)c3ccco3)CC2)c1OC,inactive: 1.1%
10,Cc1cccn2c(=O)c3cc(C(=O)NCCc4ccccc4)c(=N)n(CCCn4ccnc4)c3nc12,inactive: -2.9%
11,CCn1c(SCC(=O)NCC2CCCO2)nnc1-c1c[nH]c2ccccc12 (configuration not stated),inactive: 1.5%
12,CC(C)CCn1c(S(=O)(=O)O)nc2ccccc21,inactive: -1.2%
13,COc1cc(CNCCN2CCOCC2)ccc1OCc1ccccc1Cl,inactive: 1.8%
14,O=C(NCc1ccco1)c1c(O)c2cccc3c2n(c1=O)CCC3,inactive: 2.6%
15,CCS(=O)(=O)N1CCCC(C(=O)NCCCOC(C)C)C1 (configuration not stated),inactive: -2.3%
16,CN1CCN(C(=O)c2cc3c(C(F)(F)F)nn(C)c3s2)CC1,inactive: 0.4%
17,CCCSc1nc2c(c(=O)n(C)c(=O)n2C)n1Cc1ccc(C)cc1,inactive: 17.5%
18,CS(=O)(=O)N(Cc1ccc(C(=O)Nc2ccccc2Sc2ccccc2)cc1)c1ccccc1,inactive: -1.7%
19,COC(=O)c1ccc(CSc2nc3ccccc3c(=O)n2-c2ccccc2)o1,inactive: -0.9%
20,Cc1cc(C)c2nc(NC(=O)C3CCCO3)sc2c1 (configuration not stated),inactive: 4.1%
21,C=CCn1c(NCc2c[nH]c3ccccc23)nc2ccccc21,inactive: 3.9%
22,CCOc1cccc(CNc2ccc(O)cc2)c1OCc1ccccc1Cl,inactive: -1.8%
23,COC(=O)c1ccccc1NC(=O)c1ccc(COc2ccc(C)c(C)c2)o1,inactive: -0.1%
24,CCCOc1ccc(Cn2c(O)cc(=O)[nH]c2=O)cc1,inactive: -1.6%
25,CCNC(=O)CSc1nnc(C2CC2)n1-c1ccccc1,inactive: -0.7%

# A section from further up:
row,Structure (SMILES),inhibition
4,CN(C(=O)c1ccc(C#N)cc1)c1nnc(-c2ccccn2)s1,inactive: 0.9%
5,Cn1c(=O)n(CC(=O)N2CCOCC2)c2ccccc21,inactive: 0.4%
6,COC(=O)c1cc(OC)c(OC)cc1NC(=O)c1ccc(Br)o1,inactive: -1.6%
7,Cc1cnc(NC(=O)c2ccc3c(c2)C(=O)N(Cc2ccco2)C3=O)s1,inactive: -1.3%
8,Cn1c(=O)n(C)c2cc(S(=O)(=O)O)ccc21,inactive: 4.8%

# More results follow.

row,Structure (SMILES),inhibition
1,Cc1cc(C(=O)Nc2ccccc2)oc1C,inactive: -4.2%
2,CC(C)COCC1CC2(CC(C)(c3csc(N)n3)OC2=O)C(=O)O1 (configuration not stated),inactive: -0.5%
3,CC(/C=N/NC(=O)Cc1cc(=O)[nH][nH]1)=C\c1ccccc1,inactive: -0.5%
4,Cc1nc(SC2CCOC2=O)c2c(C)c(C)sc2n1 (configuration not stated),inactive: -4.2%
5,Cc1cc(C)n2nc(-c3ccc(F)cc3)nc2n1,inactive: 2.6%
6,CNC(=O)c1sccc1SCc1c(Cl)cccc1Cl,inactive: -3.3%
7,CCOc1ccc(OCC(=O)Nc2ccc(S(=O)(=O)Nc3cc(C)nc(C)n3)cc2)cc1,inactive: -0.7%
8,CC(=O)c1c(C)nn(C(=O)N2CCOCC2)c1C,inactive: 3.9%
9,Cc1occc1C(=O)NC(C)CCc1ccccc1 (configuration not stated),inactive: 6.4%
10,N#Cc1nc(-c2ccc(OCc3ccccc3)cc2)oc1NCCCN1CCOCC1,inactive: -1.9%
11,O=C(CCSc1nc(-c2ccco2)cc(C(F)(F)F)n1)NCCc1ccccc1,inactive: 3.2%
12,CSc1ccc(Cl)c(C(=O)OCC(=O)N2CCOCC2)c1,inactive: -5.5%
13,Cc1csc(SCCn2c(N3CCCC3)nc3c2c(=O)[nH]c(=O)n3C)n1,inactive: -5.9%
14,O=C(O)CSC1c2ccccc2C(=O)N1Cc1ccccc1 (configuration not stated),inactive: -2.3%
15,COc1ccc2c(c1OC)C(=O)N1N=C(c3ccc(O)cc3)CC21 (configuration not stated),inactive: -0.9%
16,O=C(Cn1cnc2ccccc2c1=O)N1CCN(Cc2ccc3c(c2)OCO3)CC1,inactive: -0.4%
17,COc1ccc2c(c1OC)C(=O)N1c3ccccc3SC21 (configuration not stated),inactive: -0.7%
18,Cc1cc(=O)[nH]c(SCc2nnc(-c3ccccc3)o2)n1,inactive: 26.2%
19,Cc1ccccc1C(=O)NC(=S)Nc1ccc(Oc2ccc(Cl)cc2)cc1,inactive: 0.6%
20,COc1ccc(C(=O)Nc2nnc(-c3cccs3)s2)cc1,inactive: 4.6%
21,O=C(Nc1nccs1)c1cccc(N2C(=O)c3cccc4c([N+](=O)[O-])ccc(c34)C2=O)c1,inactive: 2.3%
22,Cc1ccc(C(=O)NCCCN2CCOCC2)cc1,inactive: 10.5%
23,COc1cc(OC)cc(C(=O)Nc2ccccc2C(=O)N2CCCC2)c1,inactive: -1.5%
24,CCOc1cc(C=C(C(=O)OC)C(=O)OC)ccc1OCc1ccc([N+](=O)[O-])cc1,inactive: -2.1%
25,Cc1cc(C)n(-c2nc3c(c(=O)[nH]c(=O)n3C)n2Cc2ccccc2)n1,inactive: 1.5%

# Some of the entries so far, as tab-separated lines:
row	Structure (SMILES)	inhibition
6	CNC(=O)c1sccc1SCc1c(Cl)cccc1Cl	inactive: -3.3%
7	CCOc1ccc(OCC(=O)Nc2ccc(S(=O)(=O)Nc3cc(C)nc(C)n3)cc2)cc1	inactive: -0.7%
8	CC(=O)c1c(C)nn(C(=O)N2CCOCC2)c1C	inactive: 3.9%

# More results:

row,Structure (SMILES),inhibition
1,O=C(NCc1ccccc1)C(c1ccccc1)N(Cc1ccc2c(c1)OCO2)C(=O)Cc1cccs1 (configuration not stated),inactive: -1.8%
2,O=C1/C(=C\c2cccnc2)CCc2ccccc21,inactive: -1.8%
3,Cc1ccc(NC(=O)c2ccccc2O)cc1,inactive: -1.6%
4,Cc1ccc(C(=O)N(c2ccccn2)C(C)c2ccco2)cc1 (configuration not stated),inactive: 2.1%
5,COC(=O)c1cc(S(=O)(=O)n2nc(C)c(Br)c2C)c(Cl)cc1Cl,inactive: -1.9%
6,CC1=NNC(=O)C1C(c1ccc(F)cc1)C(C#N)C#N (configuration not stated),inactive: 0.3%
7,CCOC(=O)c1sc2nc(CC(=O)OC)nc(NCCN3CCOCC3)c2c1C,inactive: -2.4%
8,Cc1cccc(NC(=O)CSc2nccn2C)c1,inactive: 4.2%
9,O=C(c1cccc(C(=O)N2CCN(c3ccccc3F)CC2)c1)N1CCN(c2ccccc2F)CC1,inactive: 4.8%
10,CC12Cc3ccc4ccccc4c3C=C1C[N+](C)(C)C2 (configuration not stated),inactive: -0.3%
11,O=C(COC(=O)c1ccccc1NC(=O)c1ccco1)Nc1ccc2c(c1)OCO2,inactive: -1.8%
12,CCOC(=O)c1cnn(-c2nc(CC)nc3sc4c(c23)CCC4)c1N,inactive: 2.2%
13,CCOC(=O)c1oc2ccccc2c1CN1CCN(C)CC1,inactive: -1.7%
14,Cc1nc2cc(NCc3nc4ccccc4n3Cc3ccccc3)ccc2n1C,inactive: -0.2%
15,Cc1ccc(S(=O)(=O)c2c(COC(=O)c3ccccc3Cl)c(-c3ccccc3)nn2C)cc1,inactive: 0.4%
16,N#CC(c1ccc(Cl)nn1)c1ccccc1Cl (configuration not stated),inactive: 3.2%
17,Cc1[nH]c2ccccc2c1C(=O)CSc1nc2ccccc2c(=O)n1CCCN1CCOCC1,inactive: 0.5%
18,C=CCOc1ccc(Br)cc1/C=N/O,inactive: 9%
19,CCN(CC)C(=O)COc1ccc(-c2ccccc2)cc1,inactive: -1.6%
20,CC(C)c1ccc(NS(=O)(=O)c2ccc3[nH]cc(C(=O)N4CCC(C(N)=O)CC4)c(=O)c3c2)cc1,inactive: -0.7%
21,O=C(O)C1CC=CCC1C(=O)N1CCCC1 (configuration not stated),inactive: 0.3%
22,Cc1noc(NS(=O)(=O)c2ccc(NC(=O)Nc3ccc(Cl)c(Cl)c3)cc2)c1C,inactive: 0%
